Data on 7 sequences can be found in article PMC6797205.

Sequences of proteins named here, by UniProt entry; tags and fusion partners are left off. A change or cut given only in a name is not applied to a line headed by its entry.
UniProt Q94JM3: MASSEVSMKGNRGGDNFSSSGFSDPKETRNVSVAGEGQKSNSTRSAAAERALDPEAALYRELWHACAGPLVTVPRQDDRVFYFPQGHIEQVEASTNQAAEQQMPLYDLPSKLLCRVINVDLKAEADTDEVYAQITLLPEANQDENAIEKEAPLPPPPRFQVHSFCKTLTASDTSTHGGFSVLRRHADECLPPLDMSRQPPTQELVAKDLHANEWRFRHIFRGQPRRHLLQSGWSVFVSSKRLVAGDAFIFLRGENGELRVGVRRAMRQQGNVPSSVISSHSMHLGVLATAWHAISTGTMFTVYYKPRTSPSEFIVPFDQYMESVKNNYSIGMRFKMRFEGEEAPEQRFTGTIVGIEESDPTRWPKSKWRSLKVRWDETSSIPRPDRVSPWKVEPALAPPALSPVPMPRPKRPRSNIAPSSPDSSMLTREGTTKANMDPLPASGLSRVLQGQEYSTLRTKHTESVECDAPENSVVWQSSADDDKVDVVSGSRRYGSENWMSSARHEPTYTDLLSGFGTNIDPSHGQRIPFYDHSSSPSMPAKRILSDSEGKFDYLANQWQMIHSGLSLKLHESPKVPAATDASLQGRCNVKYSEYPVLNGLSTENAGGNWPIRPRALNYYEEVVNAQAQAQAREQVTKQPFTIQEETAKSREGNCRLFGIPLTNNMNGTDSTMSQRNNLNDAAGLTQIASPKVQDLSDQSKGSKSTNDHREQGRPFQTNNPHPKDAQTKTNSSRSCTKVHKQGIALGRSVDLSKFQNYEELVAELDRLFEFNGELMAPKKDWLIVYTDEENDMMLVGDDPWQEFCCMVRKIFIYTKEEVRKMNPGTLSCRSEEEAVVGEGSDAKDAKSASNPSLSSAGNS

For at least one entry, the source does not settle the construct or the ends of the probe. For some of these results: Negatives hold for the conditions tested. For some of these results: Weaker means in comparison with the reference protein, sequence or condition of that experiment. For some of these results: At least one verdict rests on a figure or table, not on a statement of the authors. For some of these results: Tags and fusion partners may be left off the protein sequences shown.

Assay in all cases: EMSA
Data set [1] concerns CaARF-DBD (Chlorokybus atmophyticus). Conditions: 0.5 uM protein; EMSA: 20 mM HEPES pH 7.8, 50 mM KCl, 100 mM Tris-HCl pH 8.0, 2.5% glycerol, 1 mM DTT, 0.07 mg/ml salmon and herring sperm DNA, 20 nM Cy5 DNA, 30 min at 4 C; 2% agarose; recombinant protein; protein details: N-terminal MBP (pETM40); label: Cy5.
In data set [2] the test system is CaARF (Chlorokybus atmophyticus). Conditions: 1 uM protein; EMSA: 20 mM HEPES pH 7.8, 50 mM KCl, 100 mM Tris-HCl pH 8.0, 2.5% glycerol, 1 mM DTT, 0.07 mg/ml salmon and herring sperm DNA, 20 nM Cy5 DNA, 30 min at 4 C; 2% agarose; recombinant protein; protein details: N-terminal MBP (pETM40); label: Cy5.
Data set [3] deals with T1, AtARF5 (Arabidopsis thaliana) (UniProt P93024).
T1 sequence (looked up): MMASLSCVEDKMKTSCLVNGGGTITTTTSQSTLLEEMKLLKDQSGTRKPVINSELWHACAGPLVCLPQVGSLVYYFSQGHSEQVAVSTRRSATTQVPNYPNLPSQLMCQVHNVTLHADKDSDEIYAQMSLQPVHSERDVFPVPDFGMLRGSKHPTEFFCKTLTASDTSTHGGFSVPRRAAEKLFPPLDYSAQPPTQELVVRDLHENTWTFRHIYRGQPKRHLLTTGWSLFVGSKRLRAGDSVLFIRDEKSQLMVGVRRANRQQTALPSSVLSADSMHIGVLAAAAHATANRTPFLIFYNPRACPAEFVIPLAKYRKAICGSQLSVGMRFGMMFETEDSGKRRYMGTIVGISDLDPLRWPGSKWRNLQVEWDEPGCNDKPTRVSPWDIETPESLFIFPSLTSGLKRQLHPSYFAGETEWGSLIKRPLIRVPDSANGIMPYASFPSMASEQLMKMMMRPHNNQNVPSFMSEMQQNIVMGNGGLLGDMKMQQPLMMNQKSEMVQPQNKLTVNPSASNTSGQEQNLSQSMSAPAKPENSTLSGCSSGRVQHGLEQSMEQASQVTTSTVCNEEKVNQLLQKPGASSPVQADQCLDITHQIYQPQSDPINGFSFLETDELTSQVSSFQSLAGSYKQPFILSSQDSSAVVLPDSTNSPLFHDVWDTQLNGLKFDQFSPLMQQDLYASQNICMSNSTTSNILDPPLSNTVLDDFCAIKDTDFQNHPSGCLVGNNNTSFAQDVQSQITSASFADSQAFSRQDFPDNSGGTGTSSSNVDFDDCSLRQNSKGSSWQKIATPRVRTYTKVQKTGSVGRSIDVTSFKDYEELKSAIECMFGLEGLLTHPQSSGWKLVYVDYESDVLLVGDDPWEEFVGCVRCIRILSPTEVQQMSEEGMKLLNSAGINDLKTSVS
As to conditions: 0.25 uM protein; EMSA: 20 mM HEPES pH 7.8, 50 mM KCl, 100 mM Tris-HCl pH 8.0, 2.5% glycerol, 1 mM DTT, 0.07 mg/ml salmon and herring sperm DNA, 20 nM Cy5 DNA, 30 min at 4 C; 2% agarose; recombinant protein; residues 1-902; protein details: His; label: Cy5.

The target of data set [4] is AtARF2 (Arabidopsis thaliana) (UniProt Q94JM3). As to conditions: 0.25 uM protein; EMSA: 20 mM HEPES pH 7.8, 50 mM KCl, 100 mM Tris-HCl pH 8.0, 2.5% glycerol, 1 mM DTT, 0.07 mg/ml salmon and herring sperm DNA, 20 nM Cy5 DNA, 30 min at 4 C; 2% agarose; recombinant protein; residues 1-859; protein details: His; label: Cy5.
Data set [5] deals with T2, AtARF10 (Arabidopsis thaliana) (UniProt Q9SKN5).
T2 sequence (looked up): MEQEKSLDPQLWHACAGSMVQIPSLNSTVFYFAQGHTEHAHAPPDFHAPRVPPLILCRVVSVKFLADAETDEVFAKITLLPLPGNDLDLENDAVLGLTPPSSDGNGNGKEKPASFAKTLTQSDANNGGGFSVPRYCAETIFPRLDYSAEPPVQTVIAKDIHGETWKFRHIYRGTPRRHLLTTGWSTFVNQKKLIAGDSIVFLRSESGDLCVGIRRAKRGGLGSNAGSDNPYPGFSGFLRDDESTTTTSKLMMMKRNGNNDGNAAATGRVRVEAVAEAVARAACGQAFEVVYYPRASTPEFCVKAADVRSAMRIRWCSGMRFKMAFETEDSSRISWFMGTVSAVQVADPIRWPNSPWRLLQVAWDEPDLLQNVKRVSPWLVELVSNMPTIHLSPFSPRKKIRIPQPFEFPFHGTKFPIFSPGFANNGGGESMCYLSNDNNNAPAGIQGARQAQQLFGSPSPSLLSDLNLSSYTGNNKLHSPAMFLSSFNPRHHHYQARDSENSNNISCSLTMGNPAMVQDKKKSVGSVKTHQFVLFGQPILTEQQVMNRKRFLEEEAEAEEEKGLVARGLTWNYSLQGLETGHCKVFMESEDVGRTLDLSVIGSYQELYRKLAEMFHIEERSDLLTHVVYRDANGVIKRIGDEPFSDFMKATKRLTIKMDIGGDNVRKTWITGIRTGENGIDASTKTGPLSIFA
As to conditions: 0.25 uM protein; EMSA: 20 mM HEPES pH 7.8, 50 mM KCl, 100 mM Tris-HCl pH 8.0, 2.5% glycerol, 1 mM DTT, 0.07 mg/ml salmon and herring sperm DNA, 20 nM Cy5 DNA, 30 min at 4 C; 2% agarose; recombinant protein; residues 1-693; protein details: His; label: Cy5.

As for “GATACACGCAATGTCGGCCTTTTGTCGGTTCCACTCA (double strand) [DR5]”, the binding result in data set [1] is given as “binds”.

Take “GATACACGCTTGTCGGCAAAGCCGACAACCACTCA (double strand) [ER5]”: the binding result is reported as “binds” in data set [2], “binds more weakly” in data set [3], “binds more weakly” in data set [4] and “binds” in data set [5].

With “GATACACGCTTGTCGGCAAGCCGACAACCACTCA (double strand) [ER4]”, the binding result in data set [2] was “binds”; in data set [3] it was “binds more weakly”; in data set [4] it was “binds more weakly”; in data set [5] it was “binds”.

Consider “GATACACGCTTGTCGGCCAAAGGCGGTGTACCACTCA (double strand) [SS (single AuxRE site)]”, for which the binding result in data set [2] was “no binding”.

With “GATACACGCTTGTCGGCCAAGAAGGCCGACAACCACTCA (double strand) [ER9]”, the binding result is listed as “binds” in data set [2], “binds more weakly” in data set [3], “binds more weakly” in data set [4] and “binds” in data set [5].

Turning to “GATACACGCTTGTCGGCCAAGGCCGACAACCACTCA (double strand) [ER6]”, the binding result in data set [2] was “binds”; in data set [3] it was “binds more weakly”; in data set [4], “binds more weakly”; in data set [5], “binds”.

In the case of “GATACACGCTTGTCTCCCAAAGGCGG (double strand) [ARF (single AuxRE)]”, the binding result in data set [1] is “no binding”.
